This passage reports EC50 results from BindingDB's records for doi:10.1016/j.bmcl.2019.126806 (Temple University, 2020).

The target in the experiment is T1, Lysosomal acid glucosylceramidase (Homo sapiens, UniProt P04062).
T1 sequence (P04062 whole entry): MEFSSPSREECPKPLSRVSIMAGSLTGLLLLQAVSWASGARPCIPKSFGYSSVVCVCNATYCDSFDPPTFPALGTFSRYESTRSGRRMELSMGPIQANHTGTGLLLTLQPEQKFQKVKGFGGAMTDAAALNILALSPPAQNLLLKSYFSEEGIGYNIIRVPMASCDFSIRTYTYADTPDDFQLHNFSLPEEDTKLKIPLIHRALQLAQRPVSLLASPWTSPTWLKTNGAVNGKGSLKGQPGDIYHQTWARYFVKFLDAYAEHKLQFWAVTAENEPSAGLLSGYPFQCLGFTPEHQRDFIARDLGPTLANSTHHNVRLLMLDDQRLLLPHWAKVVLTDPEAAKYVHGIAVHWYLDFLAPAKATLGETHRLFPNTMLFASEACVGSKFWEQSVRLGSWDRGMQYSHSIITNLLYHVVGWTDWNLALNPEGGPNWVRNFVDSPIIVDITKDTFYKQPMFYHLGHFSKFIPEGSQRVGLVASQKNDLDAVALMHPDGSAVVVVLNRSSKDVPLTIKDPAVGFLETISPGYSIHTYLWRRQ
The experiment can be described thus: Chaperone activity at GCase in wild-type human fibroblasts assessed as increase in GPN-induced reduction of calcium release using Fluo-8AM based fluorescence assay.

In the case of `CC/C(=C(\c1ccccc1)c1ccc(OCCN(C)C)cc1)c1ccccc1` [(2-{4-[(1Z)-1,2-diphenylbut-1-en-1-yl]phenoxy}ethyl)dimethylamine], the EC50 turned out to be 2.5 µM.
